Assay results from PubChem BioAssay AID1487 (National Center for Advancing Translational Sciences (NCATS), 2009).
This is one part of the list. These are further read-outs of the screen, such as a control signal, another cell line or another target. No call is given for them. The list favours compounds with an active or inconclusive main result. Potencies come from curve fits of mixed quality, noted in brackets.

Test: qHTS Assay for Modulators of Lamin A Splicing
Details: HeLa LMNA splicing GFP/RFP minigene ratio, 48 h
Summary of the method: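 S3 HeLa stable clones carrying a lamin A-EGFP splicing minigene plus DsRed2 were seeded at 600 cells/well in Opti-MEM with 2% FBS, pin-dosed and incubated 48 h at 37°C. Acumen cytometry (488 nm) gave the GFP/RFP total-intensity ratio.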

[1] = measured here: GFP splicing reporter channel
[2] = measured here: RFP viability control channel

Question: Which AC50 [1] does the source give for O=C(c1ccc(Br)cc1)C1CCc2occc2C1=O (stereo unspecified) here?
Answer: 25.1 µM [rising, single point]

Question: Which AC50 [2] does the source give for O=C(c1sc2cc(F)ccc2c1Cl)N1CCN(c2cccc(Cl)c2)CC1 here?
Answer: 35.5 µM [rising, partial curve, poor fit]

Question: Which AC50 [1] does the source give for CCCCc1cc2c(cn1)=C(OC(=O)C1CCCC1)C(C)(OC(=O)CC)C(=O)C=2 (stereo unspecified) here?
Answer: 0.000794 µM [rising, full curve, poor fit]

Question: And the AC50 [2]?
Answer: 1.26 µM [rising, partial curve, poor fit]

Question: For CCOC(=O)c1c(NC(=O)C2C3C=CC(C3)C2(C)C(=O)O)sc2c1CCCC2 (stereo unspecified), which AC50 [2] is on record?
Answer: 20 µM [rising, partial curve]

Question: For COCCNc1ncnc2c1cnn2Cc1ccc(Cl)cc1, which AC50 [2] is on record?
Answer: 14.1 µM [rising, single point]

Question: With O=C(c1ccc([N+](=O)[O-])s1)N1CCN(c2ccccc2)CC1 as the compound, how does the AC50 [2] read?
Answer: 14.1 µM [rising, single point]

Question: With Cc1nn(-c2ccccc2)c(C)c1/C=N/NC(=O)CSc1nc2ccccc2c(=O)n1-c1ccc(Br)cc1 as the compound, how does the AC50 [1] read?
Answer: 7.94 µM [falling, partial curve]

Question: What about the AC50 [2] of the same compound?
Answer: 7.94 µM [falling, partial curve]

Question: Which AC50 [1] does the source give for COc1ccc(NC(=O)Cn2c(=O)n(-c3ccc(CC(=O)NCc4ccco4)cc3)c(=O)c3ccccc32)cc1 here?
Answer: 22.4 µM [falling, partial curve, poor fit]

Question: And the AC50 [2]?
Answer: 17.8 µM [falling, partial curve]

Question: With Cc1ccc(C(=O)CSc2nnc(COc3cccc(C)c3)o2)cc1 as the compound, how does the AC50 [2] read?
Answer: 11.2 µM [rising, partial curve]

Question: Which AC50 [2] does the source give for O=c1oc2ccccc2cc1-c1csc(Cc2nc(-c3ccc(Cl)cc3)cs2)n1 here?
Answer: 5.62 µM [rising, single point]

Question: Which AC50 [1] does the source give for COC(=O)c1c(-c2ccc(Cl)cc2)noc1N1CCN(c2cccc(C)c2C)CC1 here?
Answer: 8.91 µM [falling, partial curve, poor fit]

Question: For CCOc1ccc(-c2n[nH]c(C)c2-c2ccccc2OC)c(O)c1, which AC50 [2] is on record?
Answer: 17.8 µM [rising, single point]

Question: With CCCNC(=S)N1CCC(n2cnc3ccccc32)CC1 as the compound, how does the AC50 [1] read?
Answer: 6.31 µM [falling, single point]

Question: For Clc1ccc(N=c2ssnc2Cl)cc1, which AC50 [2] is on record?
Answer: 12.6 µM [rising, partial curve]

Question: What does the source list for Nc1cccc(-c2cc(-c3ccccc3)nc(-c3cccc(N)c3)n2)c1?
Answer: AC50 [1]: 35.5 µM [falling, single point]; AC50 [2]: 35.5 µM [falling, single point]

Question: For CCOc1ccc(C2=C(C(=O)CC)Sc3nncn3N2C(=O)CC)cc1, which AC50 [1] is on record?
Answer: 0.794 µM [falling, partial curve, poor fit]

Question: What does the source list for Cc1ccc(-c2nnn(CCC(=O)N3CCCCC3C)n2)cc1 (stereo unspecified)?
Answer: AC50 [1]: 28.2 µM [rising, partial curve]; AC50 [2]: 25.1 µM [rising, single point]

Question: Which AC50 [2] does the source give for O=c1[nH]c2cccc(Cl)c2n(CCNc2ncc(C(F)(F)F)cc2Cl)c1=O here?
Answer: 14.1 µM [rising, partial curve, poor fit]

Question: With Cc1nn(CCC(=O)O)c2nc(-c3cccnc3)cc(C(F)(F)F)c12 as the compound, how does the AC50 [2] read?
Answer: 0.0708 µM [rising, full curve, poor fit]

Question: With CC(C)c1ccc(/C=C/C(=O)NCCC2=CCCCC2)cc1 as the compound, how does the AC50 [2] read?
Answer: 28.2 µM [rising, single point]

Question: With COC(=O)c1cccc(Nc2nc3ccccc3nc2C)c1 as the compound, how does the AC50 [1] read?
Answer: 5.01 µM [rising, partial curve]

Question: What about the AC50 [2] of the same compound?
Answer: 11.2 µM [rising, partial curve]

Question: For CC(=O)Nc1ccc(NC(=O)CSc2nnc(-c3ccc(NS(C)(=O)=O)cc3)n2C)cc1C, which AC50 [2] is on record?
Answer: 0.00447 µM [rising, full curve, poor fit]

Question: For Cc1cc(C(C)(C)C)ccc1OCCn1ccnc1, which AC50 [2] is on record?
Answer: 7.94 µM [rising, partial curve, poor fit]

Question: With O=C(NCc1ccc2c(c1)OCO2)c1ccc(NS(=O)(=O)c2ccc3c(c2)OCCO3)cc1 as the compound, how does the AC50 [2] read?
Answer: 15.8 µM [rising, partial curve]

Question: For CN(C)CCOC(=O)[C@@H](c1ccccc1)C1(O)CCCC1, which AC50 [2] is on record?
Answer: 0.282 µM [falling, partial curve]

Question: For COc1c(Cl)cc(C(=O)Nc2ccccc2C(=O)O)cc1Cl, which AC50 [2] is on record?
Answer: 0.0282 µM [falling, single point]

Question: Which AC50 [1] does the source give for CCOC(=O)C(=O)CC(=O)c1ccc2c(c1)OCCO2 here?
Answer: 0.0447 µM [rising, full curve, poor fit]

Question: For Cc1ccc(C)c(S(=O)(=O)n2nc(C)c(S(=O)(=O)N3CCC(C)CC3)c2C)c1, which AC50 [1] is on record?
Answer: 17.8 µM [rising, partial curve, poor fit]

Question: And the AC50 [2]?
Answer: 17.8 µM [rising, partial curve]

Question: For Cc1cccc(-n2c(SCC(=O)Nc3cccc(S(=O)(=O)NC4=NCCCCC4)c3)nc3ccccc3c2=O)c1C, which AC50 [2] is on record?
Answer: 0.562 µM [rising, partial curve, poor fit]

Question: Which AC50 [1] does the source give for C=CCn1c(Cc2cccs2)nnc1SCC(=O)c1ccc(F)cc1 here?
Answer: 25.1 µM [rising, single point]

Question: Which AC50 [2] does the source give for CCc1cccc(CC)c1C(O)c1cccnc1 (stereo unspecified) here?
Answer: 0.00447 µM [falling, full curve, poor fit]

Question: For COc1ccccc1C(=O)N1CC2(C)CC1CC(C)(C)C2 (stereo unspecified), which AC50 [2] is on record?
Answer: 35.5 µM [rising, single point]

Question: With COc1ccc(NS(=O)(=O)c2cccc(C(=O)N/N=C(\C)c3ccncc3)c2)cc1 as the compound, how does the AC50 [2] read?
Answer: 35.5 µM [rising, single point]

Question: Which AC50 [1] does the source give for O=C(Nc1ccc2c(c1)CCC2)c1cccs1 here?
Answer: 0.0224 µM [falling, full curve, poor fit]

Question: And the AC50 [2]?
Answer: 0.0398 µM [falling, full curve]

Question: Which AC50 [1] does the source give for CC(C)=NNc1nc2c(c(=O)[nH]c(=O)n2C)n1CCc1ccccc1 here?
Answer: 35.5 µM [falling, single point]

Question: Which AC50 [1] does the source give for C/C(=N/Nc1cc(-c2ccccc2)nc(-c2ccccc2)n1)c1ccc(O)cc1 here?
Answer: 35.5 µM [falling, single point]

Question: What about the AC50 [2] of the same compound?
Answer: 25.1 µM [rising, single point]

Question: Which AC50 [2] does the source give for Cc1c(C(=O)OCC2CCCO2)[nH]c2c1C(=O)CC(c1ccc(N(C)C)cc1)C2 (stereo unspecified) here?
Answer: 11.2 µM [rising, partial curve]

Question: With Cc1cc(C)c(-c2csc(Cc3nc(-c4cc5ccccc5oc4=O)cs3)n2)cc1C as the compound, how does the AC50 [2] read?
Answer: 14.1 µM [rising, partial curve]

Question: With COc1cccc(C2=NN(C(=O)c3ccccc3)C(O)(C(F)(F)F)C2)c1 (stereo unspecified) as the compound, how does the AC50 [2] read?
Answer: 31.6 µM [rising, single point]

Question: Which AC50 [2] does the source give for Fc1ccc(-c2csc3ncnc(N4CCc5ccccc5C4)c23)cc1 here?
Answer: 35.5 µM [rising, single point]

Question: For Cc1cc(C(=O)c2ccccc2)c(NC(=O)CCl)s1, which AC50 [1] is on record?
Answer: 22.4 µM [falling, single point]

Question: With COc1cccc(NC(=O)C2CCCN2S(=O)(=O)c2ccc3nc(-c4ccccc4)[nH]c3c2)c1 (stereo unspecified) as the compound, how does the AC50 [2] read?
Answer: 0.00316 µM [falling, full curve, poor fit]

Question: With CC(C)c1ccc(NC(=O)c2ccc(F)c(S(=O)(=O)N3CCN(c4ccccc4F)CC3)c2)cc1 as the compound, how does the AC50 [1] read?
Answer: 0.0282 µM [falling, full curve, poor fit]

Question: For COc1cc2c(cc1OC)CN(C(=S)NC(=O)c1ccccc1)CC2, which AC50 [1] is on record?
Answer: 0.447 µM [falling, full curve]

Question: What about the AC50 [2] of the same compound?
Answer: 0.1 µM [falling, full curve]

Question: For COc1ccccc1N1CCN(C(=O)CSc2nnc3n2C(C)(C)Cc2ccccc2-3)CC1, which AC50 [2] is on record?
Answer: 2.82 µM [rising, full curve]

Question: Which AC50 [1] does the source give for COc1ccc([N+](=O)[O-])cc1NC(=O)CSCc1ccc(Br)cc1 here?
Answer: 31.6 µM [rising, single point]

Question: What does the source list for Cc1ccc2nc(NC(=O)c3ccc(OCC4CCCO4)cc3)sc2c1 (stereo unspecified)?
Answer: AC50 [1]: 11.2 µM [rising, partial curve]; AC50 [2]: 11.2 µM [rising, partial curve]

Question: For COc1cc(/C=C2/C(=O)NN(c3cccc(C)c3)C2=O)cc([N+](=O)[O-])c1O, which AC50 [2] is on record?
Answer: 0.0316 µM [falling, full curve, poor fit]

Question: Which AC50 [2] does the source give for CCCN(Cc1ccccc1)C(=S)Nc1ccc(OC(F)F)cc1 here?
Answer: 35.5 µM [rising, single point]

Question: Which results are given for COC(=O)c1sccc1S(=O)(=O)N1CCN(c2ccc(C(C)=O)cc2)CC1?
Answer: AC50 [1]: 0.0355 µM [falling, full curve, poor fit]; AC50 [2]: 1.58 µM [falling, full curve, poor fit]

Question: Which AC50 [2] does the source give for Cc1cc(F)ccc1NC(=O)c1ccc(NS(=O)(=O)c2cc(C(C)(C)C)ccc2C)cc1 here?
Answer: 31.6 µM [rising, single point]

Question: For C[C@](N)(Cc1ccc(O)c(O)c1)C(=O)O, which AC50 [1] is on record?
Answer: 0.00224 µM [falling, partial curve, poor fit]

Question: With O=C(Nc1ccc(NC(=S)NC(=O)c2ccccc2F)cc1)c1cccs1 as the compound, how does the AC50 [1] read?
Answer: 22.4 µM [falling, single point]

Question: Which AC50 [2] does the source give for Cc1ccc(Cl)cc1N1CCN(S(=O)(=O)c2ccc(-c3cnc(C4CC4)o3)cc2)CC1 here?
Answer: 25.1 µM [rising, single point]

Question: For Clc1ccc(OCc2cn3ccccc3n2)c2ncccc12, which AC50 [2] is on record?
Answer: 0.0891 µM [falling, full curve, poor fit]

Question: Which AC50 [2] does the source give for Cc1sc2nc(CSc3nnnn3-c3ccc(Cl)cc3)[nH]c(=O)c2c1C here?
Answer: 35.5 µM [rising, single point]

Question: With CN(CCC#N)C(=O)COC(=O)c1c2c(nc3ccccc13)/C(=C/c1ccco1)CC2 as the compound, how does the AC50 [2] read?
Answer: 12.6 µM [rising, single point]

Question: For Cc1ccc(SCCC(=O)Nc2ccc(Br)c(C)c2)cc1, which AC50 [1] is on record?
Answer: 20 µM [rising, single point]

Question: What about the AC50 [2] of the same compound?
Answer: 14.1 µM [rising, partial curve]
